PubChem BioAssay AID504744 – Drosophila RNAi Screening Center, 2011

Test: 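Uncover factors, including feedback loops, that control dAkt activation in fly cells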 (primary screen)
Cells: Drosophila Kc167 cells
Reagent: long dsRNA against Drosophila genes, 250 ng dsRNA per well of a 384-well plate
Time to read-out: 3 days of knock-down, then overnight serum-free starvation before stimulation
Challenge: bovine insulin at 387 nM for 10 minutes after 12 h without serum
Measured: 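Per-well phospho-dAkt level from an in-cell fluorescent antibody stain, divided by a DNA-dye signal; log2 residuals turned into z-scores that take cell number into account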
Hit rule: 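Hit in the insulin screen when the two-replicate mean z-score is more extreme than plus or minus 2.5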
In all, the deposit lists about 23,000 reagents; this is a random part of those with a known target gene and a result. Of all reagents, 98 (0.43%) got an active call. 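Only hit calls are given; the phospho-dAkt signals, z-scores and hit direction were not deposited.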

Sap30 (SIN3-associated polypeptide 30) [DRSC19916] → call = inactive
CG30392 [DRSC22341] → call = inactive
CG34203 [DRSC03855] → call = inactive
CG13048 [DRSC09929] → call = inactive
Ir7b (Ionotropic receptor 7b) [DRSC18009] → call = inactive
Gabat (gamma-aminobutyric acid transaminase) [DRSC10846] → call = inactive
Spn42Dc (Serpin 42Dc) [DRSC05010] → call = inactive
dgt4 (dim gamma-tubulin 4) [DRSC18659] → call = inactive
CG4199 [DRSC18519] → call = inactive
CG4199 [DRSC21314] → call = inactive
CG34221 [DRSC06150] → call = inactive
CG7639 [DRSC07026] → call = inactive
CG15641 [DRSC19677] → call = inactive
Cyp316a1 (Cytochrome P450 316a1) [DRSC11130] → call = inactive
Phf7 (PHD finger protein 7) [DRSC20692] → call = inactive
CG31677 [DRSC22023] → call = inactive
Eb1 [DRSC05016] → call = inactive
CG30391 [DRSC21572] → call = inactive
CG5850 [DRSC02905] → call = inactive
Prosalpha4T1 (Proteasome alpha4 subunit, Testis-specific 1) [DRSC16800] → call = inactive
GstE11 (Glutathione S transferase E11) [DRSC06926] → call = inactive
CG34278 [DRSC13208] → call = inactive
CG8925 [DRSC16455] → call = inactive
CG8925 [DRSC16456] → call = inactive
CG8925 [DRSC16457] → call = inactive

3 of these entries, reformatted.
gene knocked down,dsRNA,call
Sap30 (SIN3-associated polypeptide 30),DRSC19916,inactive
CG30392,DRSC22341,inactive
CG34203,DRSC03855,inactive
